Experiments:
Format in all cases: binding
[1] = molecular target: cytoplasmic domain of VraS (VraS-C) (Staphylococcus aureus, UniProt Q99SZ7); conditions: read-out: KD VraS
[2] = molecular target: PurC (unrelated protein, control) (Bacillus anthracis, UniProt Q81ZH5); conditions: read-out: KD PurC (control)
VraR = VraR (Staphylococcus aureus, UniProt Q7A4R9); conditions: read-out: KD VraR

Chains of the proteins cited; added tags and fusions are not shown. Lines headed by an entry give the natural chain unless they say otherwise; changes in a name come on top. Residues count along the entry.
UniProt Q99SZ7, 70-347: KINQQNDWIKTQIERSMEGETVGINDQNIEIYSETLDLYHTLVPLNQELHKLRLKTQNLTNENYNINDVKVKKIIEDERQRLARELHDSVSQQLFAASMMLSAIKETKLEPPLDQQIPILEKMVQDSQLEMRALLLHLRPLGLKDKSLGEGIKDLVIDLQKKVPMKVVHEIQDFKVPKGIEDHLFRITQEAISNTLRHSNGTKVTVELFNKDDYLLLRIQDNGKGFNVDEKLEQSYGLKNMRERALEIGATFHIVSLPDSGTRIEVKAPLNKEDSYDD
UniProt Q81ZH5: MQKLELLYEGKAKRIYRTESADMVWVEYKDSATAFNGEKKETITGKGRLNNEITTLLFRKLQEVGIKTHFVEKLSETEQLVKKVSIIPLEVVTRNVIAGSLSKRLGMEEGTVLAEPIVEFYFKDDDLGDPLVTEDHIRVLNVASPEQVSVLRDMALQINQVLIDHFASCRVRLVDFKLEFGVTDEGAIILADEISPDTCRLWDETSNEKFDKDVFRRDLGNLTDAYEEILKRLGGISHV
UniProt Q7A4R9: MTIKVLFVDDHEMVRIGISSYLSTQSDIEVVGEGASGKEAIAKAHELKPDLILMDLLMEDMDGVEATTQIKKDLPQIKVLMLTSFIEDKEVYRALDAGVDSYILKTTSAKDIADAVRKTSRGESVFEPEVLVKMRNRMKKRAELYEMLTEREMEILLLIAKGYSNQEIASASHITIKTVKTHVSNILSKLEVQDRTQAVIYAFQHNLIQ

Measured: Kd

CCN(CC)CCOc1ccc(C(=C(Cl)c2ccccc2)c2ccccc2)cc1 [Clo, Clomiphene]
> 100 µM: all assays above
